From the supplement of paper PMC12067093, “Discovery and optimisation of a covalent ligand for TRIM25 and its application to targeted protein ubiquitination” (Chemical Science, 2025) come the findings set out here.

By UniProt entry, the sequences of proteins in these tests, tags left out. Where a name states a change or a piece, a line headed by the entry shows the natural chain unless it says otherwise.
UniProt Q9NVR2, whole entry, looked up: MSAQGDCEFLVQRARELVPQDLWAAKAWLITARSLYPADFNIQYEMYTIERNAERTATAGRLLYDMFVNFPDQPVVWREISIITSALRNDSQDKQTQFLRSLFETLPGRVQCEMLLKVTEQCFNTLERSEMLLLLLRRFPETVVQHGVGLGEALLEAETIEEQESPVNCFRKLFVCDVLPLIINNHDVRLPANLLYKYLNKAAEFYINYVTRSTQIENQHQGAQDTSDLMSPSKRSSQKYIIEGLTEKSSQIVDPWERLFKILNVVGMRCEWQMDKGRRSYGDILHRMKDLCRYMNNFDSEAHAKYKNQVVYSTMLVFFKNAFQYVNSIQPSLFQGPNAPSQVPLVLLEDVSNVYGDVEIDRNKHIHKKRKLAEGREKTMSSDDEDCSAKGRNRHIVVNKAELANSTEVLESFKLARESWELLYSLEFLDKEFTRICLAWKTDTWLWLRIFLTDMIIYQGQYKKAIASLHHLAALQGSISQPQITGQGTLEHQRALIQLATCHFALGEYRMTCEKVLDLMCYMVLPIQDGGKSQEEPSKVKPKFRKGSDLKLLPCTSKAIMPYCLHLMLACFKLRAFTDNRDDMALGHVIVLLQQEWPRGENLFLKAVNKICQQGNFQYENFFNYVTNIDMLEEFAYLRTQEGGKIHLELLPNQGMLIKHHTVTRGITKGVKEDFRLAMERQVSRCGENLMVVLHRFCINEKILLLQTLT
UniProt Q92835: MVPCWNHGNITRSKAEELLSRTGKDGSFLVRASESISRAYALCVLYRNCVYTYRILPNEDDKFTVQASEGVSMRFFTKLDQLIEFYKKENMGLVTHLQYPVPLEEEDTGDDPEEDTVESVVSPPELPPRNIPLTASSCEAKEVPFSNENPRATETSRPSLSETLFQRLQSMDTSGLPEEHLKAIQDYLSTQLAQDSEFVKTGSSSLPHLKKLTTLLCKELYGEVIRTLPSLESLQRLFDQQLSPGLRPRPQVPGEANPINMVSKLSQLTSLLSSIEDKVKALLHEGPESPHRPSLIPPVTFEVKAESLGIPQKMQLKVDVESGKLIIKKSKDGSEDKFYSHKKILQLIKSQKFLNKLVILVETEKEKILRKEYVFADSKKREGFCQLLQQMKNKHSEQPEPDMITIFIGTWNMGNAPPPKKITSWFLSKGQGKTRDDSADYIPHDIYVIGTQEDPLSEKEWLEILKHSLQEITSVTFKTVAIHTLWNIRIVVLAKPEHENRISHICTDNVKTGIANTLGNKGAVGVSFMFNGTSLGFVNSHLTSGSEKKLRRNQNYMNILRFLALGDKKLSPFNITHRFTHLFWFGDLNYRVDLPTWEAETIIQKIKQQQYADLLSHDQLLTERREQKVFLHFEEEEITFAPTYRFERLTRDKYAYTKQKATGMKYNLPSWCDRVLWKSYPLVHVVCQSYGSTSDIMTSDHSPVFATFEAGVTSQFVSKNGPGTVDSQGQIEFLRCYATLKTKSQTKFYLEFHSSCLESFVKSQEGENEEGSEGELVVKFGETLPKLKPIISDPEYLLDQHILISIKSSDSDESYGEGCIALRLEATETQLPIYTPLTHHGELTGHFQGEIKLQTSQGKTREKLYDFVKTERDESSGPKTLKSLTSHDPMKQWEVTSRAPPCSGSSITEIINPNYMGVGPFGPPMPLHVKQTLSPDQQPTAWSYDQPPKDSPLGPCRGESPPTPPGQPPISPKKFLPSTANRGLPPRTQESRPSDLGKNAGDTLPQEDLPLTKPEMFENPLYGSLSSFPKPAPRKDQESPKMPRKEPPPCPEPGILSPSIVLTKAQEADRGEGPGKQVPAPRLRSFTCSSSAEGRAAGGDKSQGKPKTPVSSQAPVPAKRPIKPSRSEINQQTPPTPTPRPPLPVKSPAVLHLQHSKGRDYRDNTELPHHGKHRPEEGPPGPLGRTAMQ
UniProt P05556, whole entry, looked up: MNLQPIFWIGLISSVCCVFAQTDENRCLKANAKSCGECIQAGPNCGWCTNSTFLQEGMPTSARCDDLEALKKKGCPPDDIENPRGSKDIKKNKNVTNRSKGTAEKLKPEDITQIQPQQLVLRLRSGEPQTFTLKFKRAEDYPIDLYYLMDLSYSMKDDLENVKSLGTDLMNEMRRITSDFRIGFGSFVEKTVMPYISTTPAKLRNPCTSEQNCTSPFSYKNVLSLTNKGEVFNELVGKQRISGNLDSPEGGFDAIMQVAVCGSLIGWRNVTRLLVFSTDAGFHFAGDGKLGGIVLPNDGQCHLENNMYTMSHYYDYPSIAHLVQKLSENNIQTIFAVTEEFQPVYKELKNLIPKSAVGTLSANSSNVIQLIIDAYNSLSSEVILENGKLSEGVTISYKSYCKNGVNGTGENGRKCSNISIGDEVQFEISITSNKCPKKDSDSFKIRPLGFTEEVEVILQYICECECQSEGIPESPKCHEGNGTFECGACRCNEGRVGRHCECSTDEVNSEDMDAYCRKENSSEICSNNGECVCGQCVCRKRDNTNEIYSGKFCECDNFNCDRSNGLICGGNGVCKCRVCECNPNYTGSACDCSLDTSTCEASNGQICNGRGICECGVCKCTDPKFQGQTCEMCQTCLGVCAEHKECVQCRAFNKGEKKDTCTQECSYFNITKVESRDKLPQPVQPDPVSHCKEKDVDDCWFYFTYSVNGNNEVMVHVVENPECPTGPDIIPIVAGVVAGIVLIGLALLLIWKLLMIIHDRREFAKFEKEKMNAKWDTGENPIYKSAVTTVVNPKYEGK
UniProt O95373, whole entry, looked up: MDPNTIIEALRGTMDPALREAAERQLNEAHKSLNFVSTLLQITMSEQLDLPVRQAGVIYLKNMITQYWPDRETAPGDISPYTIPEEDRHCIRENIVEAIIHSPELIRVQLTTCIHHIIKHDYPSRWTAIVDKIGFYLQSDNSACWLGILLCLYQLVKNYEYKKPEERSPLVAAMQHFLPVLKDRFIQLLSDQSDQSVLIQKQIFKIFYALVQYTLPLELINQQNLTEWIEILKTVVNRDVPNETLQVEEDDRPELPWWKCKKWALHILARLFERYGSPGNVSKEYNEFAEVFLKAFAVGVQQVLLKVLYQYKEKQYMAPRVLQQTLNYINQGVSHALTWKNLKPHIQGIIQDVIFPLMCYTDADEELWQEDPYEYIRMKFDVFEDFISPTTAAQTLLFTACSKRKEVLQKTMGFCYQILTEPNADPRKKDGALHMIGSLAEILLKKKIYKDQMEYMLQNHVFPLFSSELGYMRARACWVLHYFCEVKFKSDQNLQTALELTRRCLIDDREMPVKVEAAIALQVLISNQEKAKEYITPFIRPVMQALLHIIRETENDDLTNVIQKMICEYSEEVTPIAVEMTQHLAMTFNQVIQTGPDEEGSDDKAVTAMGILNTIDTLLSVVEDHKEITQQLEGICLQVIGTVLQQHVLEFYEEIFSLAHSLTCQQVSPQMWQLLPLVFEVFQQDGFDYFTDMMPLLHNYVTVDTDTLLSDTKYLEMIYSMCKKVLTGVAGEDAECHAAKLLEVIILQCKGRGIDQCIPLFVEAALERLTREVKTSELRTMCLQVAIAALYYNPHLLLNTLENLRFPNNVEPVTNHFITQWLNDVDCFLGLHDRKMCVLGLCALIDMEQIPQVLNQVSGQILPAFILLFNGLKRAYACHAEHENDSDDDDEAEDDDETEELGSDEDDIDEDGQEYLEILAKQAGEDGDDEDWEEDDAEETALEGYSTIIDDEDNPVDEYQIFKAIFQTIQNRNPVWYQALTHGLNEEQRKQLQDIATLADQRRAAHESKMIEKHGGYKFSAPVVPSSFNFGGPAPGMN
UniProt P46940, whole entry, looked up: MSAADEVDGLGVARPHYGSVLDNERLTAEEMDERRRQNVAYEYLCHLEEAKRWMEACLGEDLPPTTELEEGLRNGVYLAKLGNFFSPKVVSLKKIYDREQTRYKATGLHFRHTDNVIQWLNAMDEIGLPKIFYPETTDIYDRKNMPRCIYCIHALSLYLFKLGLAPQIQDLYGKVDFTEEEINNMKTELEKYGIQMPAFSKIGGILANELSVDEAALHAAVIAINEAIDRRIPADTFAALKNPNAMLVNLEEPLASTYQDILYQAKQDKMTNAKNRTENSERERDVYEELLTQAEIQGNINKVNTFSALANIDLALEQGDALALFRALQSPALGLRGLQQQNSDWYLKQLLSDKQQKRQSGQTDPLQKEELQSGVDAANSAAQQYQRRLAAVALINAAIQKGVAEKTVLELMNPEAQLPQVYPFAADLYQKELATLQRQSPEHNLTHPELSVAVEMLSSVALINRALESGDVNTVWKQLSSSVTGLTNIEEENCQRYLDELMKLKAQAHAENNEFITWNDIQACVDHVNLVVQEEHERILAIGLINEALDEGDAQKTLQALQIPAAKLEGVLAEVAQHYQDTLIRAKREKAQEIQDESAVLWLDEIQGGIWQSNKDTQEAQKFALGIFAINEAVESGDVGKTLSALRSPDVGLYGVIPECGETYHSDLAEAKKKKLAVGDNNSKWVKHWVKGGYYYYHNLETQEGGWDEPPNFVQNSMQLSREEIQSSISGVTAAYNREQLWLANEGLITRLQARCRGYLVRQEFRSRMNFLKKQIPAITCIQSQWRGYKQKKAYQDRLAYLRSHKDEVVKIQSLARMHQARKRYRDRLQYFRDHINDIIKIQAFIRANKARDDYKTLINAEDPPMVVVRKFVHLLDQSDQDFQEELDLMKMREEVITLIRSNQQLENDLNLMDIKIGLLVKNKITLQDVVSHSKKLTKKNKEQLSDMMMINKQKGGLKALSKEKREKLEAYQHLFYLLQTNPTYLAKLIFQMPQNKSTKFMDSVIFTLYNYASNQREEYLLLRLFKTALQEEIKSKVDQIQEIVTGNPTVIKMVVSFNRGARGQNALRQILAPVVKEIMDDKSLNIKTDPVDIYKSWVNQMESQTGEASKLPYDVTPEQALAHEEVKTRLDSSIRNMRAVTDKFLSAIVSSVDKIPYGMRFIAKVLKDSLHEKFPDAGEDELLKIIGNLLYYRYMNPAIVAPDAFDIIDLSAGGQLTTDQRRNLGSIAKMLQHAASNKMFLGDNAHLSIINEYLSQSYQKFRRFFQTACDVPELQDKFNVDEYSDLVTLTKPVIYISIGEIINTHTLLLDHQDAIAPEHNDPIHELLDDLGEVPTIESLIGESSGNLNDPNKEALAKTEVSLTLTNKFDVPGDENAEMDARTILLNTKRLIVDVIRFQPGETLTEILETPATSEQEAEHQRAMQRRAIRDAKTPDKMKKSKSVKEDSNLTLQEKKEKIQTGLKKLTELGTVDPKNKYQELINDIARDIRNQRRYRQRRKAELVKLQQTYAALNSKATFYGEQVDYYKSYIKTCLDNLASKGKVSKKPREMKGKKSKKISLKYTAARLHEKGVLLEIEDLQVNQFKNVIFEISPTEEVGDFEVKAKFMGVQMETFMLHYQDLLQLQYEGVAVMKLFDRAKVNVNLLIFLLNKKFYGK
UniProt Q8IU81: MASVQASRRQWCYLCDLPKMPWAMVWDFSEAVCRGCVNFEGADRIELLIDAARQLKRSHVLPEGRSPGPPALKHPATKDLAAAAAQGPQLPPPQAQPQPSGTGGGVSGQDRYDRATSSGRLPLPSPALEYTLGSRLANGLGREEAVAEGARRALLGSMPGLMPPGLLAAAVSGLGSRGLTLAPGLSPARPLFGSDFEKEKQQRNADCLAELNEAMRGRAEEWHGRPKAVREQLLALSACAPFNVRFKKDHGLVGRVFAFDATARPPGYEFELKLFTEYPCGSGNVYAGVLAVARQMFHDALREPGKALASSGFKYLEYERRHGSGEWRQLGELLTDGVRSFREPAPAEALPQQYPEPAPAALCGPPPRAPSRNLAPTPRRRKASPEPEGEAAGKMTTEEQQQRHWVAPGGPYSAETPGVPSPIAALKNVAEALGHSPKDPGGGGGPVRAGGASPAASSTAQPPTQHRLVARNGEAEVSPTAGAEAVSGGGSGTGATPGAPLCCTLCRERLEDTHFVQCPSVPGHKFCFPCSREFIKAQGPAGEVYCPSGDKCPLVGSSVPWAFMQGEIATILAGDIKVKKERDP
UniProt Q02556: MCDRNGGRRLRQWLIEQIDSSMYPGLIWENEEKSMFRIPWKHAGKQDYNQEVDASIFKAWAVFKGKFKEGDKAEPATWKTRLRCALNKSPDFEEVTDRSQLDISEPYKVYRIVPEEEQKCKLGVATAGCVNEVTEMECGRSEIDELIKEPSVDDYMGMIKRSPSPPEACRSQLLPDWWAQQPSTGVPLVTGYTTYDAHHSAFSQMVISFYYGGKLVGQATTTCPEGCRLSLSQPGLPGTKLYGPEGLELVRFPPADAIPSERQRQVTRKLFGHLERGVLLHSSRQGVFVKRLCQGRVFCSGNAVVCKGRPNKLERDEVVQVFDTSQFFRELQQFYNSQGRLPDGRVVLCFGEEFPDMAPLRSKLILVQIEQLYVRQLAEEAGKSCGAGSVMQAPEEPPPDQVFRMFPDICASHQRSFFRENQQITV

Compound in the experiment: CC1Cc2ccccc2N1C(=O)C1CCCN(C1)C(=O)CCl (mixture of isomers) [TRIM25 ligand 11 (diastereomer mixture)]
Kind of experiment: probe-labelled cysteine peptide fold change vs DMSO (competition) (log2 fold change); higher = less target engagement (more negative = stronger competition). The note with it: THP-1, incubation time: 4 h.

The other results are listed elsewhere or left out.
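Also: competitive chemoproteomic profiling in live THP-1 cells with an iodoacetamide desthiobiotin (IA-DTB) probe, comparing probe-labelled peptide intensities in compound-treated cells against DMSO-treated controls.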

On to “INTS10_Q9NVR2_387_TMSSDDEDCSAK (UniProt Q9NVR2)”, for which the “probe-labelled cysteine peptide fold change” value was -0.158 (10 µM) and -0.288 (50 µM).

With “INPP5D_Q92835_138_NIPLTASSCEAK (UniProt Q92835)”, the “probe-labelled cysteine peptide fold change” value is -0.0268 (10 µM) and -0.162 (50 µM).

As to “INPP5D_Q92835_506_ISHICTDNVK (UniProt Q92835)”, the “probe-labelled cysteine peptide fold change” value was 0.0178 (10 µM) and 0.119 (50 µM).

Take “INPP5D_Q92835_4_VPCWNHGNITR (UniProt Q92835)”: the “probe-labelled cysteine peptide fold change” value (10 µM) is -0.0602 and the “probe-labelled cysteine peptide fold change” value (50 µM) is -0.145.

With “INPP5D_Q92835_385_EGFCQLLQQMK (UniProt Q92835)”, the “probe-labelled cysteine peptide fold change” value reads like this: (10 µM) 0.00866; (50 µM) -0.134.

For “ITGB1_P05556_618_GICECGVCK (UniProt P05556)”, the “probe-labelled cysteine peptide fold change” value is 0.078 (10 µM) and 0.327 (50 µM).

As for “INTS11_Q5TA45_354_NMVIMPGYCVQGTVGHK (UniProt Q5TA45)”, the “probe-labelled cysteine peptide fold change” value (10 µM) was -0.0363 and the “probe-labelled cysteine peptide fold change” value (50 µM) is -0.099.

Turning to “IPO7_O95373_477+484_ACWVLHYFCEVK (UniProt O95373)”, the “probe-labelled cysteine peptide fold change” value is, setting by setting: (10 µM) 0.0454; (50 µM) 0.252.

On to “IPO4_Q8TEX9_726_AAHEALGQFCCALHK (UniProt Q8TEX9)”, for which the “probe-labelled cysteine peptide fold change” value was 0.0808 (10 µM) and 0.0814 (50 µM).

For the target “INPP5D_Q92835_217_KLTTLLCK (UniProt Q92835)”, the “probe-labelled cysteine peptide fold change” value reads like this: (10 µM) 0.0372; (50 µM) 0.0472.

On to “INTS13_Q9NVM9_406_SILEDPPSISEGCGGR (UniProt Q9NVM9)”, for which the “probe-labelled cysteine peptide fold change” value (10 µM) was found to be 0.0099 and the “probe-labelled cysteine peptide fold change” value (50 µM) is -0.194.

With “IRGQ_Q8WZA9_328_DWAQVQALLLPDAPLVCVR (UniProt Q8WZA9)”, the “probe-labelled cysteine peptide fold change” value reads like this: (10 µM) 0.0359; (50 µM) -0.034.

Consider “IQSEC2_Q5JU85_821_DVLDCVVDEMDFSSMDLDDALRK (UniProt Q5JU85)”, for which the “probe-labelled cysteine peptide fold change” value reads like this: (10 µM) 0.0671; (50 µM) -0.151.

On to “INTS3_Q68E01_80_EANDALNAYVCK (UniProt Q68E01)”, for which the “probe-labelled cysteine peptide fold change” value is, setting by setting: (10 µM) -0.0752; (50 µM) -0.0832.

With “INTS8_Q75QN2_701_LGQLLAATCK (UniProt Q75QN2)”, the “probe-labelled cysteine peptide fold change” value (10 µM) is -0.0314 and the “probe-labelled cysteine peptide fold change” value (50 µM) is 0.054.

Regarding “IQGAP1_P46940_660_SPDVGLYGVIPECGETYHSDLAEAKK (UniProt P46940)”, the “probe-labelled cysteine peptide fold change” value (10 µM) was -0.304 and the “probe-labelled cysteine peptide fold change” value (50 µM) is -0.189.

In the case of “INTS13_Q9NVM9_202_CELVLIHTYPVGEDSLVSDR (UniProt Q9NVM9)”, the “probe-labelled cysteine peptide fold change” value turned out to be 0.145 (10 µM) and 0.107 (50 µM).

For “ITGB1_P05556_75_GCPPDDIENPR (UniProt P05556)”, the “probe-labelled cysteine peptide fold change” value is -0.104 (10 µM) and 0.0494 (50 µM).

For the target “IRAK3_Q9Y616_399_RGLDSCLSFLDK (UniProt Q9Y616)”, the “probe-labelled cysteine peptide fold change” value runs as follows: (10 µM) 0.0985; (50 µM) 0.142.

Consider “ITGAM_P11215_144_GCPQEDSDIAFLIDGSGSIIPHDFRR (UniProt P11215)”, for which the “probe-labelled cysteine peptide fold change” value worked out at 0.35 (10 µM) and 0.0336 (50 µM).

For “IPO4_Q8TEX9_350_LCPQLMPMLEEALR (UniProt Q8TEX9)”, the “probe-labelled cysteine peptide fold change” value (10 µM) worked out at 0.0945 and the “probe-labelled cysteine peptide fold change” value (50 µM) is -0.122.

As for “IPO4_Q8TEX9_95_ETEHCVSLSLAQLSATIFRK (UniProt Q8TEX9)”, the “probe-labelled cysteine peptide fold change” value is, setting by setting: (10 µM) -0.09; (50 µM) 0.0344.

With “ITGB2_P05107_467+470_GFLECGICR (UniProt P05107)”, the “probe-labelled cysteine peptide fold change” value (10 µM) is -0.0181 and the “probe-labelled cysteine peptide fold change” value (50 µM) is 0.244.

For “IRF2BP1_Q8IU81_239_EQLLALSACAPFNVR (UniProt Q8IU81)”, the “probe-labelled cysteine peptide fold change” value (10 µM) was -0.0728 and the “probe-labelled cysteine peptide fold change” value (50 µM) was -0.0541.

Regarding “ITGA5_P08648_911+916_CPEAECFR (UniProt P08648)”, the “probe-labelled cysteine peptide fold change” value (10 µM) is -0.053 and the “probe-labelled cysteine peptide fold change” value (50 µM) is -0.139.

Turning to “IPO11_Q9UI26_894_DCMLMSHLEEPKVTEDEEPPTEQDKR (UniProt Q9UI26)”, the “probe-labelled cysteine peptide fold change” value was -0.125 (10 µM) and -0.395 (50 µM).

For the target “IPO4_Q8TEX9_962_VRDNICGALAR (UniProt Q8TEX9)”, the “probe-labelled cysteine peptide fold change” value is, setting by setting: (10 µM) -0.0638; (50 µM) 0.0403.

“INTS10_Q9NVR2_176_LFVCDVLPLIINNHDVR (UniProt Q9NVR2)”: the “probe-labelled cysteine peptide fold change” value (10 µM) amounted to 0.0398 and the “probe-labelled cysteine peptide fold change” value (50 µM) is 0.23.

On to “IPO7_O95373_757_GIDQCIPLFVEAALER (UniProt O95373)”, for which the “probe-labelled cysteine peptide fold change” value was 0.0116 (10 µM) and -0.524 (50 µM).

Take “IRF8_Q02556_138_LGVATAGCVNEVTEMECGR (UniProt Q02556)”: the “probe-labelled cysteine peptide fold change” value by setting is: (10 µM) 0.139; (50 µM) 0.00955.

As to “ITGAM_P11215_123_GLCFLFGSNLR (UniProt P11215)”, the “probe-labelled cysteine peptide fold change” value is, setting by setting: (10 µM) 0.138; (50 µM) -0.0456.

Regarding “ISG20L2_Q9H9L3_295_ADCPENATMSLK (UniProt Q9H9L3)”, the “probe-labelled cysteine peptide fold change” value came out at 0.109 (10 µM) and 0.0246 (50 µM).

With “INTS9_Q9NV88_14_LYCLSGHPTLPCNVLK (UniProt Q9NV88)”, the “probe-labelled cysteine peptide fold change” value (10 µM) is 0.071 and the “probe-labelled cysteine peptide fold change” value (50 µM) is 0.183.

On to “IRF2BP1_Q8IU81_207_NADCLAELNEAMR (UniProt Q8IU81)”, for which the “probe-labelled cysteine peptide fold change” value by setting is: (10 µM) -0.113; (50 µM) -0.28.

As for “IPO4_Q8TEX9_574_AVGEPMRPLAEECCQLGLGLCDQVDDPDLRR (UniProt Q8TEX9)”, the “probe-labelled cysteine peptide fold change” value was 0.0522 (10 µM) and -0.0355 (50 µM).

On to “IQGAP1_P46940_57_WMEACLGEDLPPTTELEEGLR (UniProt P46940)”, for which the “probe-labelled cysteine peptide fold change” value is -0.268 (10 µM) and 0.0472 (50 µM).

With “IRF2BP2_Q7Z5L9_19_RQSCYLCDLPR (UniProt Q7Z5L9)”, the “probe-labelled cysteine peptide fold change” value reads like this: (10 µM) -0.0676; (50 µM) 0.0609.

As to “INTS2_Q9H0H0_1186_DTGSMDPDVQLCHCIER (UniProt Q9H0H0)”, the “probe-labelled cysteine peptide fold change” value runs as follows: (10 µM) 0.08; (50 µM) 0.0623.

As to “ITGB1_P05556_64_CDDLEALKK (UniProt P05556)”, the “probe-labelled cysteine peptide fold change” value by setting is: (10 µM) -0.0716; (50 µM) 0.0347.

Turning to “ITGAV_P06756_97_CQPIEFDATGNR (UniProt P06756)”, the “probe-labelled cysteine peptide fold change” value runs as follows: (10 µM) 0.0589; (50 µM) -0.0513.

As for “IPO9_Q96P70_639_ELSQIEACQGPMQMR (UniProt Q96P70)”, the “probe-labelled cysteine peptide fold change” value was -0.0476 (10 µM) and -0.187 (50 µM).

Consider “IQGAP2_Q13576_1183_EACNVPEPEEK (UniProt Q13576)”, for which the “probe-labelled cysteine peptide fold change” value was -0.149 (10 µM) and -0.119 (50 µM).
